Marks after values point to notes of the source that are not given here.
How the values were obtained:
Acacia victoriae = assay: Multiple shoot induction from shoot tips; details: MS medium; 1.3 mg/L
[1] = system: Acacia victoriae hairy roots; assay: Growth of hairy root cultures in liquid medium; details: for Fresh weight after 4 weeks / Fold increase: initial F.W. 300 mg; for Fold increase: 4 weeks
[2] = Carbon source 2% W/V in MS medium

Structure (SMILES): c1ccc(CNc2ncnc3[nH]cnc23)cc1 [BA]
- shoots/culture (average) (Acacia victoriae): 3.94

Structure (SMILES): C=C1C[C@]23C[C@@]1(O)CC[C@H]2[C@@]12C=C[C@H](O)[C@@](C)(C(=O)O1)[C@H]2[C@@H]3C(=O)O [GA3, gibberellic acid]
- growth of hairy roots ([1]; 0.1, 0.5 and 1.0 mg/L in MS medium): did not enhance the growth
- Fresh weight after 4 weeks ([1]; GA3 0.1 mg/L): 4.732 ± 0.086 gm
- Fold increase ([1]; GA3 0.1 mg/L): 15.77
- Fresh weight after 4 weeks ([1]; GA3 0.5 mg/L): 4.634 ± 0.088 gm
- Fold increase ([1]; GA3 0.5 mg/L): 15.44
- Fresh weight after 4 weeks ([1]; GA3 1 mg/L): 4.310 ± 0.344 gm
- Fold increase ([1]; GA3 1 mg/L): 15.44

Structure (SMILES): OC[C@H]1O[C@@](CO)(O[C@H]2O[C@H](CO)[C@@H](O)[C@H](O)[C@H]2O)[C@@H](O)[C@@H]1O [sucrose]
- growth of hairy roots ([1]; 2% (w/v) carbon source in MS medium): 24.52 fold
- Fresh weight after 4 weeks [1, 2]: 7.356 ± 0.543^c gm
- Fold increase [1, 2]: 24.52

From patent publication US20060148732A1, “Inhibition of NF-kappaB by triterpene compositions” (priority 2000, published 2006)
